For test [1], the target named is T1, Ran-specific GTPase activating protein RanGAP1 (human (endogenous in HeLa and HEK 293T)) (UniProt P46060).
T1 sequence: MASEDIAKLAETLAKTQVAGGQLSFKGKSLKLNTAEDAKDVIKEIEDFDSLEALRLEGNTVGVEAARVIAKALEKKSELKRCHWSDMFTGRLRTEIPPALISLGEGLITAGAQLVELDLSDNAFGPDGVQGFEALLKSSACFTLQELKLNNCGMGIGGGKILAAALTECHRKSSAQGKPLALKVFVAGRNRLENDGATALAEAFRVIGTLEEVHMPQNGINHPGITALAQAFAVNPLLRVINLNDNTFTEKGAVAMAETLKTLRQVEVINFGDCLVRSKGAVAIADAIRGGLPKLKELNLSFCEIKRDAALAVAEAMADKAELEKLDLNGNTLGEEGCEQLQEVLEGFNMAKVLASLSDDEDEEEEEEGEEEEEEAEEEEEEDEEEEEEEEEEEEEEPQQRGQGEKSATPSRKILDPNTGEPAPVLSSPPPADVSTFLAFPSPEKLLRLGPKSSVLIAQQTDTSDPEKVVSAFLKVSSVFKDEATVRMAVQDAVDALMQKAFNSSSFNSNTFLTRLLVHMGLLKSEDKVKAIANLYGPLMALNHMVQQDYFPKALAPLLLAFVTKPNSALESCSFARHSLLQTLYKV
Put plainly: co-IP; endogenous RanGAP1 immunoprecipitated (goat α-RanGAP1, protein G sepharose, overnight 4 °C) from HeLa cytosolic extracts with 20 mM NEM; non-transduced, shE or shBP2 transduced cells; blotted for RanBP2, Ubc9, TRIM5α, SUMO1.

By UniProt entry, the sequences of proteins in these tests, tags left out.
UniProt Q9C035: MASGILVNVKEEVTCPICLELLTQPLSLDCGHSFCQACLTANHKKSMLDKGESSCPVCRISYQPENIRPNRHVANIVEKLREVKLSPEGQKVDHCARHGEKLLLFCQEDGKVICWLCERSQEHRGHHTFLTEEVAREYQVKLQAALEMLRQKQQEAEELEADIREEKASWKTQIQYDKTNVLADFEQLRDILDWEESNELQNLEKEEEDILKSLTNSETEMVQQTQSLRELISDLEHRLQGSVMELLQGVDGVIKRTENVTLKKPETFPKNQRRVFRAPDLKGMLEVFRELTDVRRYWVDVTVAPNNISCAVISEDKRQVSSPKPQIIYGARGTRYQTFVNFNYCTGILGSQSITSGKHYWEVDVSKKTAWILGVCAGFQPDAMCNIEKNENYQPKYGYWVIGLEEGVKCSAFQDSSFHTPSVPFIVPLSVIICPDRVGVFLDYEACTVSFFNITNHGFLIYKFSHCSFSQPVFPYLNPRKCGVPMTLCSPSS
UniProt P49792: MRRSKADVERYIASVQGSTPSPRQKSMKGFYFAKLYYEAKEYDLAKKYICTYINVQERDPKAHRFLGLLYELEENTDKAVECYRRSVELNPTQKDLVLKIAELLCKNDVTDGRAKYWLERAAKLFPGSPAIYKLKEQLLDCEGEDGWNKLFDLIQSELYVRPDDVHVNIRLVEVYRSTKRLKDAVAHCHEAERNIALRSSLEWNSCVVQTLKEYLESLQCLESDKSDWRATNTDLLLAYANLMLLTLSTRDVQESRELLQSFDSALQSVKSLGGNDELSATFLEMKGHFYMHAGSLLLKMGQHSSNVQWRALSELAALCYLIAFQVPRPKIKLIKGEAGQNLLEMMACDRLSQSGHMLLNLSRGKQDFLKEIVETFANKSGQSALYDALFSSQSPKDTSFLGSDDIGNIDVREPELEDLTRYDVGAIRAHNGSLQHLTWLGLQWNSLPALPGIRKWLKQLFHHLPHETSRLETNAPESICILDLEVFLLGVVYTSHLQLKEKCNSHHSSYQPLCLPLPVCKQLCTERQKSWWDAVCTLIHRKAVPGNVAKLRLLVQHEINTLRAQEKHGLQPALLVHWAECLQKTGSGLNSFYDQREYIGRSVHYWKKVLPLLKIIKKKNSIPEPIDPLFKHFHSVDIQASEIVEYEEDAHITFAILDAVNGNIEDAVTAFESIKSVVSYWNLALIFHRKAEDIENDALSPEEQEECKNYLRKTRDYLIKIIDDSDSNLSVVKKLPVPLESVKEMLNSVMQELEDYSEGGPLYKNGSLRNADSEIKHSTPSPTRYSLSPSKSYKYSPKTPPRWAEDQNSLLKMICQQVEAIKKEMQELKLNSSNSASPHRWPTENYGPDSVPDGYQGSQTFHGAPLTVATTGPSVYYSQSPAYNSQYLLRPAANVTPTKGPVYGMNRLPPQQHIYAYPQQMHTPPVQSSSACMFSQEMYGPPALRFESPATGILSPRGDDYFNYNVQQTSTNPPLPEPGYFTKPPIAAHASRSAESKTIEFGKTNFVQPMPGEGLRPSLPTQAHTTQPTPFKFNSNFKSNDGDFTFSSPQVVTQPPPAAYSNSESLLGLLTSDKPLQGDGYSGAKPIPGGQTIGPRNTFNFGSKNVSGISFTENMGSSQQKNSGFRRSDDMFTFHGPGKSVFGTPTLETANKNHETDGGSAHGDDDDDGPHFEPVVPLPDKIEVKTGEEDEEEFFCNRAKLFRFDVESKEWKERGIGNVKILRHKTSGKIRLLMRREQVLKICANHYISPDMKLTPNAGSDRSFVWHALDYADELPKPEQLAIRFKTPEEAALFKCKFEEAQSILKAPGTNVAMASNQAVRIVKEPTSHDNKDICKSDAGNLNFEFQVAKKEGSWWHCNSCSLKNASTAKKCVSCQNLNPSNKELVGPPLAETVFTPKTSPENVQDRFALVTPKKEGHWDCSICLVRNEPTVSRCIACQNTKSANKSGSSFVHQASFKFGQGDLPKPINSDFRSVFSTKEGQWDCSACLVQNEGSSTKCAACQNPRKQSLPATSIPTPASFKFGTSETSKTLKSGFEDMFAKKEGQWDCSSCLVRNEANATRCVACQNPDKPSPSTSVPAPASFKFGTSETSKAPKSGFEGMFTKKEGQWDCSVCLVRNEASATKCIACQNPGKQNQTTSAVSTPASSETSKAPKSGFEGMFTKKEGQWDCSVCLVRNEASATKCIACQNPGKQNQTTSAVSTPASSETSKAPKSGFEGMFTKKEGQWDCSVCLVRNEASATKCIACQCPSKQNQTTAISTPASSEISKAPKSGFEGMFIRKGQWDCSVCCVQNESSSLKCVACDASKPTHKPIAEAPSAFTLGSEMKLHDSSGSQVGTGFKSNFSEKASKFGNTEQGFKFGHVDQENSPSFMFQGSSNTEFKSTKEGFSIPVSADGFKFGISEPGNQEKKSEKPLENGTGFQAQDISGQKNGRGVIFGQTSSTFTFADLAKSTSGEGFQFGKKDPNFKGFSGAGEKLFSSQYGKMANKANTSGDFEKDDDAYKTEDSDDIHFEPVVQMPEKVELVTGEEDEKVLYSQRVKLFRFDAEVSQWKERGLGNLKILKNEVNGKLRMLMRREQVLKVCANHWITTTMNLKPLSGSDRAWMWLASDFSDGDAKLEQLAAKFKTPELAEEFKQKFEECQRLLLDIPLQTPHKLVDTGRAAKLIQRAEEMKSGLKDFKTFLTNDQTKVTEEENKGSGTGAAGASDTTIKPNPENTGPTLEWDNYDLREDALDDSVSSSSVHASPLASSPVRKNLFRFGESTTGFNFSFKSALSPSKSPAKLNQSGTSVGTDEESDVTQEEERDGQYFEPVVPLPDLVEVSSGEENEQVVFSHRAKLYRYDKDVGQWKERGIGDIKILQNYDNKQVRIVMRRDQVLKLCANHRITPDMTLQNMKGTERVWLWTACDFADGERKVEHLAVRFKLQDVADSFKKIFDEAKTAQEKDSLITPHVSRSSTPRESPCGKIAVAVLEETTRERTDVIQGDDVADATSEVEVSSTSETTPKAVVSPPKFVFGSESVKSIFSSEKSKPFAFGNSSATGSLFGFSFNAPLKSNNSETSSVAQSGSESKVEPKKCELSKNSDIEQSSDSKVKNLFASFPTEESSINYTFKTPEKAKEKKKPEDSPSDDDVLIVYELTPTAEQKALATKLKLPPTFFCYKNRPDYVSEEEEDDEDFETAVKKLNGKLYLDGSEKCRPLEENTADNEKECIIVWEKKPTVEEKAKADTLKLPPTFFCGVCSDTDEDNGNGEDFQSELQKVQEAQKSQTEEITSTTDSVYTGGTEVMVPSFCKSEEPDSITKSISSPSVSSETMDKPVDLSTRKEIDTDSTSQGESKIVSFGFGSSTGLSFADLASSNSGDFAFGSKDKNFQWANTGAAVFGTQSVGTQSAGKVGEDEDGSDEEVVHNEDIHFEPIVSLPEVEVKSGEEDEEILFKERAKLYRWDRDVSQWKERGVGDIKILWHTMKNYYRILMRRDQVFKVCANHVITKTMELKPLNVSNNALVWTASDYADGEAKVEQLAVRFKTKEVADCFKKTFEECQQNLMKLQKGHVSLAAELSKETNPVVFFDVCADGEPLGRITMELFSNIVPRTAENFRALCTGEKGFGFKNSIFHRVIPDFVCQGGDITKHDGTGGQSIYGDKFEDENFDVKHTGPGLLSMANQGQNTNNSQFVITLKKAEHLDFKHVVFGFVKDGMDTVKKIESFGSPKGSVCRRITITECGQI

Test [2] concerns the target TRIM5α (alpha isoform of the tripartite motif-containing protein 5), unmodified 55 kDa species (human (endogenous in HeLa and HEK 293T)) (UniProt Q9C035). Put plainly: co-IP; endogenous TRIM5α immunoprecipitated (rabbit α-TRIM5α, protein G sepharose, overnight 4 °C) from HeLa whole cell lysates with 20 mM NEM; non-transduced, shE, shBP2 or shTRIM5α transduced cells; blotted for RanBP2.

These are yes or no findings as the source states them, for the method shown. In cells and extracts the contact can be indirect. Some entries that bind do so weakly or less than the wild type.

Turning to “TRIM5α (alpha isoform of the tripartite motif-containing protein 5), unmodified 55 kDa species (from UniProt Q9C035 1-493)”, in test [1], the binding entry was “binds”.
Take “RanBP2 (Nup358), nucleoporin and E3 SUMO ligase (from UniProt P49792 1-3224)”: in test [2], the binding result was “binds”.

The values are drawn from paper PMC6237768.
